Source: PubChem BioAssay AID1259254 (NCATS, 2017)

Aim: 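Gene knock-downs that lead to re-replication, shown by excess G2 DNA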 (primary screen)
System: human HCT116 colorectal cancer cells
Reagents: single siRNA against human genes
Timing: 3 days
Measured: 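Imaged Hoechst DNA stain sorts each cell into a cycle phase by DNA amount; per plate, G2 fraction set to 0% for non-targeting and 100% for GMNN siRNA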
Scale: G2 robust z-score and G2 cells, % of GMNN control: higher = more G2 cells, more excess DNA replication; raw share of cells in G2: higher = larger share of cells with G2 DNA content
Hit rule: 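An siRNA counts as active if its G2 robust z-score lies at least 5 MADs above the screen median; here such calls match roughly 38% of GMNN control or more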
The deposit covers about 59,000 reagents; shown is an unselected part. Of all reagents, about 1,550 (2.6%) got an active call. 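G2 share is only a proxy for re-replication; each gene was hit by three separate siRNAs, and active genes were retested.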 The raw values are shown without normalisation. Reagents against one gene are numbered here. The record does not give: the amount of reagent.

gene symbol,reagent no.,G2 robust z-score,"G2 cells, % of GMNN control",raw share of cells in G2 (%),Outcome
SLAMF9,1,1.77,15.4,10.6,inactive
SLAMF9,2,-0.167,1.79,3.56,inactive
SLAMF9,3,1.22,11.5,6.58,inactive
CPSF6,1,2.08,17.6,13.4,inactive
CPSF6,2,-0.21,1.49,4.38,inactive
CPSF6,3,-0.376,0.324,4.26,inactive
POLR2MP1,1,-1.04,-4.35,2.49,inactive
POLR2MP1,2,2.12,17.9,11.1,inactive
POLR2MP1,3,1.17,11.2,8.71,inactive
MRPL12,1,3.6,28.3,17,inactive
MRPL12,2,-0.585,-1.15,3.77,inactive
MRPL12,3,0.247,4.7,5.05,inactive
PDZD11,1,-0.0374,2.7,4.89,inactive
PDZD11,2,1.51,13.6,9.7,inactive
PDZD11,3,2.14,18,8.93,inactive
GALNT15,1,-0.802,-2.67,4.43,inactive
GALNT15,2,3.36,26.6,16.4,inactive
GALNT15,3,1.26,11.8,8.94,inactive
ATG12,1,-0.903,-3.39,3.63,inactive
ATG12,2,-0.548,-0.89,3.54,inactive
ATG12,3,1.26,11.8,7.53,inactive
FN3K,1,1.67,14.7,10.2,inactive
FN3K,2,-0.723,-2.12,4.42,inactive
FN3K,3,-1.03,-4.28,2.31,inactive
ARL8A,1,-0.685,-1.85,3.78,inactive
ARL8A,2,-0.205,1.53,5.62,inactive
ARL8A,3,-0.59,-1.19,5.12,inactive
INSM1,1,1.2,11.4,9.82,inactive
INSM1,2,-0.288,0.943,4.59,inactive
INSM1,3,-0.00106,2.96,4.42,inactive
LNPK,1,3.52,27.7,16,inactive
LNPK,2,-0.497,-0.529,4.07,inactive
LNPK,3,-0.543,-0.853,2.14,inactive
ARL8B,1,0.903,9.32,7.78,inactive
ARL8B,2,3.03,24.3,14.5,inactive
ARL8B,3,5.46,41.4,24.6,active
IBA57,1,2.93,23.6,10.2,inactive
IBA57,2,-0.0709,2.47,4.49,inactive
IBA57,3,1.5,13.5,7.48,inactive
POLA1,1,-0.271,1.06,4.5,inactive
POLA1,2,1.99,17,10.8,inactive
POLA1,3,-0.697,-1.94,3.94,inactive
IL17C,1,-0.189,1.64,3.77,inactive
IL17C,2,-0.124,2.09,4.65,inactive
IL17C,3,-0.193,1.61,5.16,inactive
ZMAT4,1,0.119,3.81,5.57,inactive
ZMAT4,2,-0.962,-3.8,3.85,inactive
ZMAT4,3,-0.752,-2.32,3.93,inactive
UBD,1,-0.784,-2.55,4.18,inactive
UBD,2,0.0458,3.29,5.32,inactive
UBD,3,0.311,5.16,5.28,inactive
CRISP1,1,0.31,5.15,7.72,inactive
CRISP1,2,-0.19,1.63,4.68,inactive
CRISP1,3,2.06,17.4,10.4,inactive
DLGAP2,1,-0.0507,2.61,5.64,inactive
DLGAP2,2,0.333,5.31,7.13,inactive
DLGAP2,3,0.766,8.36,8.33,inactive
DLGAP2,4,1.25,11.7,8.15,inactive
DLGAP2,5,-0.021,2.82,4.49,inactive
DLGAP2,6,-0.487,-0.456,2.96,inactive
ELOCP3,1,0.491,6.42,5.02,inactive
ELOCP3,2,2.6,21.2,11.7,inactive
ELOCP3,3,-1.04,-4.38,1.7,inactive
CRACDL,1,0.988,9.92,7.39,inactive
CRACDL,2,-0.58,-1.12,2.77,inactive
CRACDL,3,-0.577,-1.09,3.75,inactive
REDIC1,1,-0.336,0.601,3.86,inactive
REDIC1,2,0.757,8.29,6.25,inactive
REDIC1,3,0.345,5.39,4.91,inactive
CASP9,1,2.39,19.8,12.4,inactive
CASP9,2,1.57,14,9.88,inactive
CASP9,3,-0.317,0.74,4.19,inactive
MIR9-1HG,1,0.688,7.81,8.86,inactive
MIR9-1HG,2,-0.892,-3.31,2.56,inactive
MIR9-1HG,3,0.853,8.97,6.67,inactive
FRG2B,1,4.02,31.3,15.7,inactive
FRG2B,2,-0.0375,2.7,4.44,inactive
FRG2B,3,4.82,36.9,15.6,inactive
URGCP,1,8.8,64.9,29.5,active
URGCP,2,-0.0169,2.85,5.32,inactive
URGCP,3,-0.0762,2.43,3.91,inactive
CES4A,1,-0.44,-0.131,3.59,inactive
CES4A,2,1.02,10.2,6.98,inactive
CES4A,3,0.0139,3.07,4.2,inactive
NOVA2,1,0.896,9.27,8.94,inactive
NOVA2,2,-0.468,-0.326,5.34,inactive
NOVA2,3,-0.631,-1.47,2.71,inactive

Only “raw share of cells in G2 (%)”, for 9 of the entries above:
FN3K #3 = 2.31
ARL8A #1 = 3.78
ARL8A #2 = 5.62
ARL8A #3 = 5.12
INSM1 #1 = 9.82
INSM1 #2 = 4.59
INSM1 #3 = 4.42
LNPK #1 = 16
LNPK #2 = 4.07
